# According to article PMC4166900 (Frontiers in Chemistry, 2014):
# Some peptides are written in HELM: one residue between dots, names in brackets for other building blocks, links after the first $.
# Tests used:
# [1] = general procedure: peptide synthesis; TFFH (preactivation of LVFX for conjugation); settings: conjugation step
# [2] = peptide made by a vendor (peptide synthesis; TFFH (preactivation of LVFX for conjugation)); settings: whole synthesis
Substance,conjugation yield [1] [%],final purity (method not given) [2] [%]
"PEPTIDE1{[LVFX].R.G.R.R.S.S.R.R.K.K.[am]}|CHEM1{[LVFX]}|CHEM2{[LVFX]}$PEPTIDE1,CHEM1,10:R3-1:R2|PEPTIDE1,CHEM2,11:R3-1:R2$$$V2.0",~87,
indolicidin,,≥95
PEPTIDE1{R.G.R.R.S.S.R.R.K.K.[am]}$$$$V2.0,,≥95
